The nature of this data set: general procedure: Fmoc solid-phase peptide synthesis; Wang resin (Applied Biosystems), 0.5 mmol/g.

For the substance “AHX-DIREK, CYCLIC BY VIRTUE OF A LACTAM BRIDGE”, the step yield (late stage modification step) stood at 45%.

Under “whole synthesis, on serine resin loading reported by manufacturer, scale of the general procedure approximately 1 mmol”, BIO-LRELS registered an isolated yield of 29%.
